Source: article PMC10214663
No constants are given. Whether binding was seen depends on the method and setting. Some entries that bind do so weakly or less than the wild type. For part of these data: Where a sequence is shown, tags or fusion partners need not be part of it.

By UniProt entry, the sequences of proteins in these tests, tags left out. Residues count along the entry.
UniProt O76093, residues 28-207: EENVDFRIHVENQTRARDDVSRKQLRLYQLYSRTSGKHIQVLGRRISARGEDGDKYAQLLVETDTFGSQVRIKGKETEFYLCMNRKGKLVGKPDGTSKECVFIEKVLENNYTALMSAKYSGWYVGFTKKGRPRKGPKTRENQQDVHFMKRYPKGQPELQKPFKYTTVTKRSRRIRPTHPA
UniProt P08620, residues 31-206: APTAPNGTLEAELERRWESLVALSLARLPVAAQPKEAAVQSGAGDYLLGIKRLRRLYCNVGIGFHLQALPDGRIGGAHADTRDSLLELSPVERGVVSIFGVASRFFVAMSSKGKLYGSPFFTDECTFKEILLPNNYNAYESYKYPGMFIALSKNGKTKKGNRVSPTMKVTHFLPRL

What was measured:
[1] = target: galectin-1 (human) (UniProt P09382); assay: overlay or dot blot; galectin array: recombinant galectins (0,5 pmol) dot-blotted on PVDF, blocked with 3% BSA, incubated overnight with FGFs-Fc or Fc (0,9 pM); anti-Fc mAb-HRP and chemiluminescence; with FGF4-Fc also done in the presence of lactose (Fig. S1); both purified
[2] = target: galectin-7 (human) (UniProt P47929); assay: as above
[3] = target: galectin-3 (human) (UniProt P17931); assay: as above
[4] = target: FGF18-Fc (human) (UniProt O76093); assay: BLI; Octet RED K2; FGFs-Fc (25 µg/mL; N-glycosylated or PNGase F-treated) on Protein-A sensors, pairwise with a reference sensor (Fc subtracted); galectins at 50 µg/mL in solution; both purified
[5] = target: T1, FGF10-Fc (human) (UniProt O15520); assay: as above
T1 sequence (chain, N-glycosylated (two putative N-glycosylation sites; shift on PNGase F treatment)): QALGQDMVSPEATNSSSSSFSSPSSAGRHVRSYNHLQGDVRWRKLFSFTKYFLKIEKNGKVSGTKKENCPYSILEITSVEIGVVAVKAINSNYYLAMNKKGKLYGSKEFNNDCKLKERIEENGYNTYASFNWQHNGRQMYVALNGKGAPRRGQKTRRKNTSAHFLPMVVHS

[6] = target: FGF4-Fc (human) (UniProt P08620); assay: as above

Measured: binding

FGF18-Fc (from UniProt O76093 28-207) (Fc fusion)
binds: [1] | [2] | [3]

galectin-1 (from UniProt P09382 1-135)
binds: [4] | [5] | [6]

galectin-3 (from UniProt P17931 1-250)
binds: [4] | [5] | [6]

galectin-7 (from UniProt P47929 1-136)
binds: [4] | [5] | [6]
